According to patent publication US20220306751A1 (MYTHIC THERAPEUTICS, published 2022):
No constants are given. Whether binding was seen depends on the method and setting. Some results given as binding are weak or reduced against the parent protein; the word gives no strength.

T1: CD123 protein (R&D Systems Catalog No. 301-R3-025/CF) (Homo sapiens (Human)) (UniProt P26951)
T1 sequence: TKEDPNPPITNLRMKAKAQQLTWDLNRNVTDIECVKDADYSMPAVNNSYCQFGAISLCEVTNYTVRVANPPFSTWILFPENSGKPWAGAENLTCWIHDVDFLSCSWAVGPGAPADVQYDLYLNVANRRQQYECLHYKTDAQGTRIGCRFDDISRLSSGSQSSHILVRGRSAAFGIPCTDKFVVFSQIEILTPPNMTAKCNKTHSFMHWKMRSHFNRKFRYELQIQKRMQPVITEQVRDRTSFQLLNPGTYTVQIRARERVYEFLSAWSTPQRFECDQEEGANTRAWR

B1: MYT5450 (antibody, V domains shown)
VH: EVQLLESGGGLVQPGGSLRLSCAVSDYSITSHYYWNWIRQAPGKKLEWMGYISYDGSNNYNPSLKNGRITISRDTSKNTFYLQMNSLRAEDTAVYYCARGEGFYFDSWGQGTLVTVSS
VL: EIVLTQSPGTLSLSPGERATLSCKSSQSLFFGSTQKNYLAWYQQKPGQAPRLLIYWASTRESGIPDRFSGSGSGTDFTLTISRLEPEDFAVYYCQQYYNYPWTFGQGTKLEIK
B2: MYT5452 (antibody, V domains shown)
VH: EVQLLESGGGLVQPGGSLRLSCAVSDYSITSGYHWNWIRQAPGKKLEWMGYISYDGSNNYNPSLKNGRITISRDTSKNTFYLQMNSLRAEDTAVYYCARGEGFYFDSWGQGTLVTVSS
VL: EIVLTQSPGTLSLSPGERATLSCKSSQSLFFGSTQKNYLAWYQQKPGQAPRLLIYWASTRESGIPDRFSGSGSGTDFTLTISRLEPEDFAVYYCQQYYNYPWTFGQGTKLEIK
B3: MYT5453 (antibody, V domains shown)
VH: EVQLLESGGGLVQPGGSLRLSCAVSDYSITSGYYHNWIRQAPGKKLEWMGYISYDGSNNYNPSLKNGRITISRDTSKNTFYLQMNSLRAEDTAVYYCARGEGFYFDSWGQGTLVTVSS
VL: EIVLTQSPGTLSLSPGERATLSCKSSQSLFFGSTQKNYLAWYQQKPGQAPRLLIYWASTRESGIPDRFSGSGSGTDFTLTISRLEPEDFAVYYCQQYYNYPWTFGQGTKLEIK
B4: MYT5454 (antibody, V domains shown)
VH: EVQLLESGGGLVQPGGSLRLSCAVSDYSITSGYYWHWIRQAPGKKLEWMGYISYDGSNNYNPSLKNGRITISRDTSKNTFYLQMNSLRAEDTAVYYCARGEGFYFDSWGQGTLVTVSS
VL: EIVLTQSPGTLSLSPGERATLSCKSSQSLFFGSTQKNYLAWYQQKPGQAPRLLIYWASTRESGIPDRFSGSGSGTDFTLTISRLEPEDFAVYYCQQYYNYPWTFGQGTKLEIK
B5: MYT5455 (antibody, V domains shown)
VH: EVQLLESGGGLVQPGGSLRLSCAVSDYSITSGYYWNWIRQAPGKKLEWMGHISYDGSNNYNPSLKNGRITISRDTSKNTFYLQMNSLRAEDTAVYYCARGEGFYFDSWGQGTLVTVSS
VL: EIVLTQSPGTLSLSPGERATLSCKSSQSLFFGSTQKNYLAWYQQKPGQAPRLLIYWASTRESGIPDRFSGSGSGTDFTLTISRLEPEDFAVYYCQQYYNYPWTFGQGTKLEIK
B6: MYT5457 (antibody, V domains shown)
VH: EVQLLESGGGLVQPGGSLRLSCAVSDYSITSGYYWNWIRQAPGKKLEWMGYIHYDGSNNYNPSLKNGRITISRDTSKNTFYLQMNSLRAEDTAVYYCARGEGFYFDSWGQGTLVTVSS
VL: EIVLTQSPGTLSLSPGERATLSCKSSQSLFFGSTQKNYLAWYQQKPGQAPRLLIYWASTRESGIPDRFSGSGSGTDFTLTISRLEPEDFAVYYCQQYYNYPWTFGQGTKLEIK
B7: MYT5458 (antibody, V domains shown)
VH: EVQLLESGGGLVQPGGSLRLSCAVSDYSITSGYYWNWIRQAPGKKLEWMGYISHDGSNNYNPSLKNGRITISRDTSKNTFYLQMNSLRAEDTAVYYCARGEGFYFDSWGQGTLVTVSS
VL: EIVLTQSPGTLSLSPGERATLSCKSSQSLFFGSTQKNYLAWYQQKPGQAPRLLIYWASTRESGIPDRFSGSGSGTDFTLTISRLEPEDFAVYYCQQYYNYPWTFGQGTKLEIK
B8: MYT5472 (antibody, V domains shown)
VH: EVQLLESGGGLVQPGGSLRLSCAVSDYSITSGYYWNWIRQAPGKKLEWMGYISYDGSNNYNPSLKNGRITISRDTSKNTFYLQMNSLRAEDTAVYYCHRGEGFYFDSWGQGTLVTVSS
VL: EIVLTQSPGTLSLSPGERATLSCKSSQSLFFGSTQKNYLAWYQQKPGQAPRLLIYWASTRESGIPDRFSGSGSGTDFTLTISRLEPEDFAVYYCQQYYNYPWTFGQGTKLEIK
B9: MYT5473 (antibody, V domains shown)
VH: EVQLLESGGGLVQPGGSLRLSCAVSDYSITSGYYWNWIRQAPGKKLEWMGYISYDGSNNYNPSLKNGRITISRDTSKNTFYLQMNSLRAEDTAVYYCAHGEGFYFDSWGQGTLVTVSS
VL: EIVLTQSPGTLSLSPGERATLSCKSSQSLFFGSTQKNYLAWYQQKPGQAPRLLIYWASTRESGIPDRFSGSGSGTDFTLTISRLEPEDFAVYYCQQYYNYPWTFGQGTKLEIK
B10: MYT5474 (antibody, V domains shown)
VH: EVQLLESGGGLVQPGGSLRLSCAVSDYSITSGYYWNWIRQAPGKKLEWMGYISYDGSNNYNPSLKNGRITISRDTSKNTFYLQMNSLRAEDTAVYYCARHEGFYFDSWGQGTLVTVSS
VL: EIVLTQSPGTLSLSPGERATLSCKSSQSLFFGSTQKNYLAWYQQKPGQAPRLLIYWASTRESGIPDRFSGSGSGTDFTLTISRLEPEDFAVYYCQQYYNYPWTFGQGTKLEIK
B11: MYT5475 (antibody, V domains shown)
VH: EVQLLESGGGLVQPGGSLRLSCAVSDYSITSGYYWNWIRQAPGKKLEWMGYISYDGSNNYNPSLKNGRITISRDTSKNTFYLQMNSLRAEDTAVYYCARGHGFYFDSWGQGTLVTVSS
VL: EIVLTQSPGTLSLSPGERATLSCKSSQSLFFGSTQKNYLAWYQQKPGQAPRLLIYWASTRESGIPDRFSGSGSGTDFTLTISRLEPEDFAVYYCQQYYNYPWTFGQGTKLEIK
B12: MYT5477 (antibody, V domains shown)
VH: EVQLLESGGGLVQPGGSLRLSCAVSDYSITSGYYWNWIRQAPGKKLEWMGYISYDGSNNYNPSLKNGRITISRDTSKNTFYLQMNSLRAEDTAVYYCARGEGHYFDSWGQGTLVTVSS
VL: EIVLTQSPGTLSLSPGERATLSCKSSQSLFFGSTQKNYLAWYQQKPGQAPRLLIYWASTRESGIPDRFSGSGSGTDFTLTISRLEPEDFAVYYCQQYYNYPWTFGQGTKLEIK
B13: MYT5478 (antibody, V domains shown)
VH: EVQLLESGGGLVQPGGSLRLSCAVSDYSITSGYYWNWIRQAPGKKLEWMGYISYDGSNNYNPSLKNGRITISRDTSKNTFYLQMNSLRAEDTAVYYCARGEGFHFDSWGQGTLVTVSS
VL: EIVLTQSPGTLSLSPGERATLSCKSSQSLFFGSTQKNYLAWYQQKPGQAPRLLIYWASTRESGIPDRFSGSGSGTDFTLTISRLEPEDFAVYYCQQYYNYPWTFGQGTKLEIK
B14: MYT5441 (antibody, V domains shown)
VH: EVQLLESGGGLVQPGGSLRLSCHVSDYSITSGYYWNWIRQAPGKKLEWMGYISYDGSNNYNPSLKNGRITISRDTSKNTFYLQMNSLRAEDTAVYYCARGEGFYFDSWGQGTLVTVSS
VL: EIVLTQSPGTLSLSPGERATLSCKSSQSLFFGSTQKNYLAWYQQKPGQAPRLLIYWASTRESGIPDRFSGSGSGTDFTLTISRLEPEDFAVYYCQQYYNYPWTFGQGTKLEIK
B15: MYT5442 (antibody, V domains shown)
VH: EVQLLESGGGLVQPGGSLRLSCAHSDYSITSGYYWNWIRQAPGKKLEWMGYISYDGSNNYNPSLKNGRITISRDTSKNTFYLQMNSLRAEDTAVYYCARGEGFYFDSWGQGTLVTVSS
VL: EIVLTQSPGTLSLSPGERATLSCKSSQSLFFGSTQKNYLAWYQQKPGQAPRLLIYWASTRESGIPDRFSGSGSGTDFTLTISRLEPEDFAVYYCQQYYNYPWTFGQGTKLEIK
B16: MYT5443 (antibody, V domains shown)
VH: EVQLLESGGGLVQPGGSLRLSCAVHDYSITSGYYWNWIRQAPGKKLEWMGYISYDGSNNYNPSLKNGRITISRDTSKNTFYLQMNSLRAEDTAVYYCARGEGFYFDSWGQGTLVTVSS
VL: EIVLTQSPGTLSLSPGERATLSCKSSQSLFFGSTQKNYLAWYQQKPGQAPRLLIYWASTRESGIPDRFSGSGSGTDFTLTISRLEPEDFAVYYCQQYYNYPWTFGQGTKLEIK
B17: MYT5444 (antibody, V domains shown)
VH: EVQLLESGGGLVQPGGSLRLSCAVSHYSITSGYYWNWIRQAPGKKLEWMGYISYDGSNNYNPSLKNGRITISRDTSKNTFYLQMNSLRAEDTAVYYCARGEGFYFDSWGQGTLVTVSS
VL: EIVLTQSPGTLSLSPGERATLSCKSSQSLFFGSTQKNYLAWYQQKPGQAPRLLIYWASTRESGIPDRFSGSGSGTDFTLTISRLEPEDFAVYYCQQYYNYPWTFGQGTKLEIK
B18: MYT5445 (antibody, V domains shown)
VH: EVQLLESGGGLVQPGGSLRLSCAVSDHSITSGYYWNWIRQAPGKKLEWMGYISYDGSNNYNPSLKNGRITISRDTSKNTFYLQMNSLRAEDTAVYYCARGEGFYFDSWGQGTLVTVSS
VL: EIVLTQSPGTLSLSPGERATLSCKSSQSLFFGSTQKNYLAWYQQKPGQAPRLLIYWASTRESGIPDRFSGSGSGTDFTLTISRLEPEDFAVYYCQQYYNYPWTFGQGTKLEIK
B19: MYT5446 (antibody, V domains shown)
VH: EVQLLESGGGLVQPGGSLRLSCAVSDYHITSGYYWNWIRQAPGKKLEWMGYISYDGSNNYNPSLKNGRITISRDTSKNTFYLQMNSLRAEDTAVYYCARGEGFYFDSWGQGTLVTVSS
VL: EIVLTQSPGTLSLSPGERATLSCKSSQSLFFGSTQKNYLAWYQQKPGQAPRLLIYWASTRESGIPDRFSGSGSGTDFTLTISRLEPEDFAVYYCQQYYNYPWTFGQGTKLEIK
B20: MYT5447 (antibody, V domains shown)
VH: EVQLLESGGGLVQPGGSLRLSCAVSDYSHTSGYYWNWIRQAPGKKLEWMGYISYDGSNNYNPSLKNGRITISRDTSKNTFYLQMNSLRAEDTAVYYCARGEGFYFDSWGQGTLVTVSS
VL: EIVLTQSPGTLSLSPGERATLSCKSSQSLFFGSTQKNYLAWYQQKPGQAPRLLIYWASTRESGIPDRFSGSGSGTDFTLTISRLEPEDFAVYYCQQYYNYPWTFGQGTKLEIK

molecular target: T1, CD123 protein (R&D Systems Catalog No. 301-R3-025/CF) (Homo sapiens (Human)); assay: BLI, IgG on anti-human Fc sensor, 50 nM CD123, pH 7.4 and pH 5.4

binding, binds:
B1
B2
B3
B4
B5
B6
B7
B8
B9
B10
B11
B12
B13
B14
B15
B16
B17
B18
B19
B20
